No constants are given. Whether binding was seen depends on the method and setting. In cells and extracts the contact can be indirect. Some entries that bind do so weakly or less than the wild type.
Biological target: T1, oral-facial digital syndrome type 1 (OFD1) (human (endogenous in primary melanocytes)) (UniProt O75665)
T1 sequence: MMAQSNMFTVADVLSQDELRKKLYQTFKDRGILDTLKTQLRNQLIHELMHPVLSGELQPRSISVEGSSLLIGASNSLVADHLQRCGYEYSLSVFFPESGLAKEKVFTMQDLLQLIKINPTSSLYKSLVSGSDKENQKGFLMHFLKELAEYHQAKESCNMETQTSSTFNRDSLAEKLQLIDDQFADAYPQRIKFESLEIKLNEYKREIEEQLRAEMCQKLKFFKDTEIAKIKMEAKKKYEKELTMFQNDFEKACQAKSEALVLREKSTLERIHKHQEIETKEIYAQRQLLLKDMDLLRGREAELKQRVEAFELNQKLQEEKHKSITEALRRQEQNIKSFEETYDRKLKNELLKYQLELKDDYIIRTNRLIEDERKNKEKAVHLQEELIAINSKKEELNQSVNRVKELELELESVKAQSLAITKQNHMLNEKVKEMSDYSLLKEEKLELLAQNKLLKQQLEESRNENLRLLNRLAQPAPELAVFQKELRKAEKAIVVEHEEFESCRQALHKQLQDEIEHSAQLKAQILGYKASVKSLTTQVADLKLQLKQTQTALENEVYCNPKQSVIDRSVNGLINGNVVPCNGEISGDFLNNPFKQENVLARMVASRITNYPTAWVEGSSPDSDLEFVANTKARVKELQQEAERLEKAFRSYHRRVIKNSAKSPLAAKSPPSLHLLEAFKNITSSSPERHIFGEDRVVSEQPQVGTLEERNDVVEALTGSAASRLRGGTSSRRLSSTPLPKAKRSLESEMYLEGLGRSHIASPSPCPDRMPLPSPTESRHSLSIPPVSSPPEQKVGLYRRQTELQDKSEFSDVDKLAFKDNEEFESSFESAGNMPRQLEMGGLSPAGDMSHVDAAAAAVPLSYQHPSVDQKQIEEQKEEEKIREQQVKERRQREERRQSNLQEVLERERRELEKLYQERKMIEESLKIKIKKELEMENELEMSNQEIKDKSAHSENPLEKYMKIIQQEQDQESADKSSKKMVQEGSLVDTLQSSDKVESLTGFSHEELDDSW
Assay: co-IP; anti-OFD1 or antipaxillin antibody on resin (Pierce Direct IP kit), 4 °C, lysates of cultured melanocytes with or without OFD1 knockdown; immunoblot with antipaxillin, anti-FAK or anti-OFD1

Chains of the proteins cited; added tags and fusions are not shown.
UniProt P49023: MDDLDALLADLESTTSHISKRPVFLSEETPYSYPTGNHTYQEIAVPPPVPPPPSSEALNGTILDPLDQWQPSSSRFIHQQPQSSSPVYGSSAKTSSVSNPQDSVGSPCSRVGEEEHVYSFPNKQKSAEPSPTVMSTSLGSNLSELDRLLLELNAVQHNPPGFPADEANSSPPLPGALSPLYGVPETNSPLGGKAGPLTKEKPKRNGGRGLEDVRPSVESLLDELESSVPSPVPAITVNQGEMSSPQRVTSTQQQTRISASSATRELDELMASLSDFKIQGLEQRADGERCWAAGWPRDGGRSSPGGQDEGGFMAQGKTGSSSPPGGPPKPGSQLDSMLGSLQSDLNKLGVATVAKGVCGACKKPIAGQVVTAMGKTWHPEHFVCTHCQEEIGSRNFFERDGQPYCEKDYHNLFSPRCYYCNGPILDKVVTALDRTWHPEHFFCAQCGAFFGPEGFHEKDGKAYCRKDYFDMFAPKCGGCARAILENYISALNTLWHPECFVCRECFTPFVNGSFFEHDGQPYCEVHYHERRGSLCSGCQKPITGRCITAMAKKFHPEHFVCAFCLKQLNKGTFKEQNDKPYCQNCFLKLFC

binding: binds
Substance: paxillin (from UniProt P49023 1-591)
